According to patent US20080214823A1, “Preparation of Montelukast” (Dr. Reddy's Laboratories Ltd., priority 2004, published 2008):
For at least one compound, name, drawing or mass did not settle the structure.

Assays:
[1] = Study of hygroscopic nature of montelukast sodium in accelerated and atmospheric conditions; format: physicochemical; conditions: for Purity: HPLC
[2] = Stability study for montelukast sodium stored in nitrogen-filled, silica gel, triple laminated bag / HDPE packaging; format: physicochemical; conditions: packaged storage
[3] = Accelerated Conditions (40 ± 2° C., 75 ± 5% Relative Humidity), 1st day
[4] = Accelerated Conditions (40 ± 2° C., 75 ± 5% Relative Humidity), 3rd day
[5] = Accelerated Conditions (40 ± 2° C., 75 ± 5% Relative Humidity), 7th day
[6] = Accelerated Conditions (40 ± 2° C., 75 ± 5% Relative Humidity), Initial day
[7] = Ambient conditions, Initial day

CC(C)(O)c1ccccc1CC[C@@H](SCC1(CC(=O)O)CC1)c1cccc(/C=C/c2ccc3ccc(Cl)cc3n2)c1 [montelukast sodium]
Description [1, 3]: Pale yellow colored powder | Water by KF [1, 3]: 2.9% | Description [1, 4]: Pale yellow colored powder | Water by KF [1, 4]: 4.3% | Description [1, 5]: Pale yellow colored powder | Water by KF [1, 5]: 5.4% | Purity [1, 5]: 99.3% | Description [1, 6]: Off-white powder | Water by KF [1, 6]: 1.5% | Purity [1, 6]: 99.4% | Description ([1]; Ambient conditions, 1st day): Pale yellow colored powder | Water by KF ([1]; Ambient conditions, 1st day): 8.9% | Description ([1]; Ambient conditions, 3rd day): Pale yellow colored powder | Water by KF ([1]; Ambient conditions, 3rd day): 8.9% | Description ([1]; Ambient conditions, 7th day): Pale yellow colored powder | Water by KF ([1]; Ambient conditions, 7th day): 8.8% | Purity ([1]; Ambient conditions, 7th day): 99.4% | Description [1, 7]: Off-white powder | Water by KF [1, 7]: 1.5% | Purity [1, 7]: 99.4% | change in water content by the Karl Fischer method ([1]; both accelerated and ambient conditions, from the initial to the seventh day): significant increase | change in the HPLC purity ([1]; from initial day to the seventh day): no significant change | Assay by HPLC (%) ([2]; Initial): 99.5% | Chiral Purity by HPLC (% of other isomer) ([2]; Initial): 0.02% | Moisture Content ([2]; Initial): 1.0 | Purity by HPLC (%) ([2]; Initial): 99.4% | Assay by HPLC (%) ([2]; One Month): 99.1% | Chiral Purity by HPLC (% of other isomer) ([2]; One Month): 0.04% | Moisture Content ([2]; One Month): 1.2 | Purity by HPLC (%) ([2]; One Month): 99.4% | Assay by HPLC (%) ([2]; Six Months): 99.2% | Chiral Purity by HPLC (% of other isomer) ([2]; Six Months): 0.02% | Moisture Content ([2]; Six Months): 1.5 | Purity by HPLC (%) ([2]; Six Months): 99.3% | Assay by HPLC (%) ([2]; Three Months): 99.2% | Chiral Purity by HPLC (% of other isomer) ([2]; Three Months): 0.03% | Moisture Content ([2]; Three Months): 1.3 | Purity by HPLC (%) ([2]; Three Months): 99.4% | Assay by HPLC (%) ([2]; Two Months): 99.2% | Chiral Purity by HPLC (% of other isomer) ([2]; Two Months): 0.05% | Moisture Content ([2]; Two Months): 1.3 | Purity by HPLC (%) ([2]; Two Months): 99.4%
